The source of these data is the supplement of paper PMC3334620.

Whole data set: some 33,000 sequences, median “E-score (-0.5 to 0.5)” near -0.015, cut for the highest 2% near 0.3. Some of the results follow.

This experiment addresses T1, Abf1 (UniProt P14164).
T1 sequence: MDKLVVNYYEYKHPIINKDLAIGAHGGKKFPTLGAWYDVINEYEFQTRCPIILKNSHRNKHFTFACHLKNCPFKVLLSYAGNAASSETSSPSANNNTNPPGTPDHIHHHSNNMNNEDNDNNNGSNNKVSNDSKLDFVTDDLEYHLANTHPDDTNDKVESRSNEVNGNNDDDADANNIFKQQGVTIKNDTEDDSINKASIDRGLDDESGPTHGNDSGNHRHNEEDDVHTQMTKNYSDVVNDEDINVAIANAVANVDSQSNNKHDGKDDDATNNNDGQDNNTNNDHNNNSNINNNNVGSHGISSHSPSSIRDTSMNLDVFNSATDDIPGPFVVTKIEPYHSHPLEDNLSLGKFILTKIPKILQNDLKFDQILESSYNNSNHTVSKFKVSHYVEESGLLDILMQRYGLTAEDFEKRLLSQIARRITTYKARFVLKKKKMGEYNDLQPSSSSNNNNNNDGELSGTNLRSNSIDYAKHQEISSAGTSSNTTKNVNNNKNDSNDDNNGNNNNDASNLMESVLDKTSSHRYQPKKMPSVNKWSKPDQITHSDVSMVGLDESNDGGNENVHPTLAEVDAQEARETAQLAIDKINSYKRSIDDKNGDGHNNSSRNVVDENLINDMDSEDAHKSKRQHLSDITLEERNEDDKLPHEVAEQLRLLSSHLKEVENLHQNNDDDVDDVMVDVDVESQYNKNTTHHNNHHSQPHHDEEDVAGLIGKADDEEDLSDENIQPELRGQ
As to the kind of experiment: PBM E-score (8-mer binding enrichment) (E-score (-0.5 to 0.5)); higher = stronger / more preferred TF binding. The note with it: protein concentration: 200 nM; construct: GST-full length. A digest of the protocol:
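Yeast transcription factors, full-length or as DNA-binding domains, were expressed with a GST tag using PURExpress in vitro transcription/translation. At about 100-200 nM they were applied to universal all-10-mer Agilent arrays, double-stranded by primer extension on fresh or once-stripped slides. Fluorescent anti-GST detected bound protein, and masliner normalised the scans. E-scores for ungapped eight-base words, pooled with reverse complements, came from the Universal PBM Analysis Suite.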
On to GCCTGTAA, for which the “PBM E-score” value is -0.214.

Regarding ATCTTCCA, the “PBM E-score” value was 0.105.

As for CTTGGCCA, the “PBM E-score” value was -0.117.

CGGGTAGC: the “PBM E-score” value is -0.0716.

Consider ATATAGCC, for which the “PBM E-score” value stood at 0.0391.

As for ACGTTTGA, the “PBM E-score” value turned out to be 0.174.

On to CTTGGCAC, for which the “PBM E-score” value is -0.0709.

Take GCCAGAAC: the “PBM E-score” value is -0.0265.

With CGTTGACA, the “PBM E-score” value came out at 0.245.

As to GAAAGAAC, the “PBM E-score” value is -0.0226.

ACGGGGAC: the “PBM E-score” value was -0.058.

AGCTTTAC: the “PBM E-score” value was -0.206.

Regarding AGGAAGAA, the “PBM E-score” value was -0.209.

ACCGCGGA: the “PBM E-score” value is -0.0979.

Consider AGATAACC, for which the “PBM E-score” value was 0.0382.

Take ACTACCAA: the “PBM E-score” value was -0.0137.

As for AGTGAGAG, the “PBM E-score” value is -0.0892.

In the case of CAGAGACG, the “PBM E-score” value is 0.112.

On to GCCCAGCA, for which the “PBM E-score” value is -0.191.

ATCAGATA: the “PBM E-score” value is 0.181.

On to CGGATAGA, for which the “PBM E-score” value came out at 0.147.

As for GTGGTGGA, the “PBM E-score” value is -0.129.

Turning to CCCACAGA, the “PBM E-score” value was -0.123.

Regarding ATCTTAGG, the “PBM E-score” value is -0.179.

Take AACCTCGT: the “PBM E-score” value is 0.117.

AGACTAGG: the “PBM E-score” value turned out to be 0.0676.

For GGTACCTA, the “PBM E-score” value is -0.0193.

As for CGATTAGA, the “PBM E-score” value worked out at 0.059.

Turning to ACGCTTCC, the “PBM E-score” value is -0.0593.

As for ACAATGGA, the “PBM E-score” value is 0.0806.

For CGCTCCGA, the “PBM E-score” value is -0.178.

For the sequence ACCCCCCA, the “PBM E-score” value was -0.288.

As to CGACTGAA, the “PBM E-score” value stood at 0.00453.

For the sequence CTGTACTC, the “PBM E-score” value is -0.154.

As to CGTACTAA, the “PBM E-score” value was determined as 0.329.

As for AGTGGGCG, the “PBM E-score” value is -0.0758.

On to AATCCGAC, for which the “PBM E-score” value is 0.0966.

With GGTGGCCA, the “PBM E-score” value was -0.00405.

Consider GAAAGATA, for which the “PBM E-score” value is 0.181.

In the case of TCTATACA, the “PBM E-score” value is -0.058.

CAAGCGTG: the “PBM E-score” value was 0.

With GACTAAAC, the “PBM E-score” value is -0.00383.

Consider CGCGGATC, for which the “PBM E-score” value is -0.15.

For the sequence CGCACAGC, the “PBM E-score” value amounted to 0.0067.

Regarding AACGGTAT, the “PBM E-score” value is 0.119.

As for AGGACTTA, the “PBM E-score” value is -0.292.

For the sequence CCTGCATA, the “PBM E-score” value was -0.18.

Take CCCAGTAC: the “PBM E-score” value was -0.0125.

On to GCCCCTCC, for which the “PBM E-score” value is -0.354.

As to AATGGGTA, the “PBM E-score” value was 0.0925.

GTGATCAC: the “PBM E-score” value stood at 0.386.

For ATGGGGAA, the “PBM E-score” value was -0.104.

Regarding AATCGACC, the “PBM E-score” value is -0.112.

In the case of AGTTCCCC, the “PBM E-score” value was -0.127.

Consider AAGTAAGG, for which the “PBM E-score” value was 0.142.

In the case of AAAGCATC, the “PBM E-score” value is 0.0655.

On to TACTCGAA, for which the “PBM E-score” value was found to be 0.00285.

Consider GGTAAACA, for which the “PBM E-score” value was -0.0751.

Take AGCTGAAC: the “PBM E-score” value is -0.186.

Consider AAATCTGG, for which the “PBM E-score” value worked out at 0.00605.

Regarding AAGGGGGC, the “PBM E-score” value was -0.268.

Take AGTGAAGC: the “PBM E-score” value was -0.0888.

As for CGTAGATA, the “PBM E-score” value turned out to be 0.213.

Take CCGGGCAA: the “PBM E-score” value was -0.241.

Turning to AGATTGCA, the “PBM E-score” value came out at 0.0866.

In the case of ACTGTGGG, the “PBM E-score” value was -0.127.

As for ATATAATG, the “PBM E-score” value stood at 0.248.

Regarding ATCGTAGG, the “PBM E-score” value came to 0.0423.

Regarding CACCAGTC, the “PBM E-score” value was -0.0323.

As for GCGACACA, the “PBM E-score” value was 0.122.

With GTGTCGCA, the “PBM E-score” value was -0.0335.

Consider GGGAGACA, for which the “PBM E-score” value is -0.228.

AATGTGCC: the “PBM E-score” value is -0.0335.

For GCGTTACC, the “PBM E-score” value is -0.0756.

For CCGCGAGC, the “PBM E-score” value was -0.17.

For CGAGTGAC, the “PBM E-score” value worked out at 0.358.

For GAGTAGCC, the “PBM E-score” value is -0.187.

In the case of TCCTTTAA, the “PBM E-score” value was -0.0612.

On to CCCGCGTC, for which the “PBM E-score” value was -0.268.

Consider ACTTTGCT, for which the “PBM E-score” value was found to be 0.0751.

For the sequence CGGGTTAC, the “PBM E-score” value came to 0.167.

Take GCGGATTA: the “PBM E-score” value amounted to 0.0392.

As to GCTGCAGC, the “PBM E-score” value was -0.227.

On to TAAGGTAA, for which the “PBM E-score” value stood at 0.0469.

Regarding CGCTAGAG, the “PBM E-score” value is -0.216.

As for ATCATTCA, the “PBM E-score” value turned out to be 0.278.
